Laboratory results: PubChem BioAssay AID1508597 (Cure First, 2020)

Aim: 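Knock-downs altering ovarian cancer cell survival with or without PARP inhibitor rucaparib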 (primary screen)
Cells: human ovarian carcinoma lines grown from tumours: OCI-P5x (papillary serous) and OCI-C5x (clear cell)
Reagent: siRNA pool against human genes, 1.25 pmol siRNA per well
Time to read-out: 72 h or 96 h, depending on the cell culture
Conditions: rucaparib 20 µM (about IC30) or vehicle, present until read-out
Read-out: 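Luminescent ATP-based viability assay read 72 or 96 h after transfection, depending on culture, given as normalised percent viability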
Direction: viability, normalised: higher = more viable cells remaining
Hit rule: 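a well counts as a hit if its normalised viability is under 80 percent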
Calls: active = viability under 80%; inactive = viability 80% or more
The whole screen tested about 2,100 reagents; shown is a part drawn at random. 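Calls flag viability under 80% in either arm, not effects specific to rucaparib; the reference for percent is not stated.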 Reagent sequences are not shown. Not stated in the record: the 100% reference.

ARID5A (AT-rich interaction domain 5A), rucaparib or vehicle Rucaparib, cell line OCI-C5x (clear cell), technical replicate 1 scored viability, normalised (%) = 48.6; active. ARID5A (AT-rich interaction domain 5A), rucaparib or vehicle Rucaparib, cell line OCI-C5x (clear cell), technical replicate 2 showed viability, normalised (%) = 45.4; active. With ARID5A (AT-rich interaction domain 5A), rucaparib or vehicle Rucaparib, cell line OCI-C5x (clear cell), technical replicate 3, the values are viability, normalised (%) = 39.1; active. ARID5A (AT-rich interaction domain 5A), rucaparib or vehicle Rucaparib, cell line OCI-P5x (serous), technical replicate 1 scored viability, normalised (%) = 59.2; active. For ARID5A (AT-rich interaction domain 5A), rucaparib or vehicle Rucaparib, cell line OCI-P5x (serous), technical replicate 2 the deposit lists viability, normalised (%) = 55.8; active. ARID5A (AT-rich interaction domain 5A), rucaparib or vehicle Rucaparib, cell line OCI-P5x (serous), technical replicate 3 gave viability, normalised (%) = 60.2; active.

ARID5A (AT-rich interaction domain 5A), rucaparib or vehicle Vehicle, cell line OCI-C5x (clear cell), technical replicate 1 scored viability, normalised (%) = 26.4; active. ARID5A (AT-rich interaction domain 5A), rucaparib or vehicle Vehicle, cell line OCI-C5x (clear cell), technical replicate 2 gave viability, normalised (%) = 43.5; active. For ARID5A (AT-rich interaction domain 5A), rucaparib or vehicle Vehicle, cell line OCI-C5x (clear cell), technical replicate 3 the deposit lists viability, normalised (%) = 38.2; active. With ARID5A (AT-rich interaction domain 5A), rucaparib or vehicle Vehicle, cell line OCI-P5x (serous), technical replicate 1, the entry reads viability, normalised (%) = 35.4; active. With ARID5A (AT-rich interaction domain 5A), rucaparib or vehicle Vehicle, cell line OCI-P5x (serous), technical replicate 2, the entry reads viability, normalised (%) = 60.2; active. ARID5A (AT-rich interaction domain 5A), rucaparib or vehicle Vehicle, cell line OCI-P5x (serous), technical replicate 3 showed viability, normalised (%) = 66.7; active.

DGKH (diacylglycerol kinase eta), rucaparib or vehicle Rucaparib, cell line OCI-C5x (clear cell), technical replicate 1 showed viability, normalised (%) = 56; active. DGKH (diacylglycerol kinase eta), rucaparib or vehicle Rucaparib, cell line OCI-C5x (clear cell), technical replicate 2 showed viability, normalised (%) = 79; active. DGKH (diacylglycerol kinase eta), rucaparib or vehicle Rucaparib, cell line OCI-C5x (clear cell), technical replicate 3 showed viability, normalised (%) = 60; active. DGKH (diacylglycerol kinase eta), rucaparib or vehicle Rucaparib, cell line OCI-P5x (serous), technical replicate 1 scored viability, normalised (%) = 113; inactive. For DGKH (diacylglycerol kinase eta), rucaparib or vehicle Rucaparib, cell line OCI-P5x (serous), technical replicate 2, the values are viability, normalised (%) = 98.7; inactive. DGKH (diacylglycerol kinase eta), rucaparib or vehicle Rucaparib, cell line OCI-P5x (serous), technical replicate 3 gave viability, normalised (%) = 118; inactive.

DGKH (diacylglycerol kinase eta), rucaparib or vehicle Vehicle, cell line OCI-C5x (clear cell), technical replicate 1 showed viability, normalised (%) = 51.7; active. DGKH (diacylglycerol kinase eta), rucaparib or vehicle Vehicle, cell line OCI-C5x (clear cell), technical replicate 2 showed viability, normalised (%) = 51.2; active. For DGKH (diacylglycerol kinase eta), rucaparib or vehicle Vehicle, cell line OCI-C5x (clear cell), technical replicate 3 the deposit lists viability, normalised (%) = 69.8; active. With DGKH (diacylglycerol kinase eta), rucaparib or vehicle Vehicle, cell line OCI-P5x (serous), technical replicate 1, the values are viability, normalised (%) = 103; inactive. For DGKH (diacylglycerol kinase eta), rucaparib or vehicle Vehicle, cell line OCI-P5x (serous), technical replicate 2, the values are viability, normalised (%) = 104; inactive. For DGKH (diacylglycerol kinase eta), rucaparib or vehicle Vehicle, cell line OCI-P5x (serous), technical replicate 3, the entry reads viability, normalised (%) = 112; inactive.

With COQ8A (coenzyme Q8A), rucaparib or vehicle Rucaparib, cell line OCI-C5x (clear cell), technical replicate 1, the entry reads viability, normalised (%) = 82.6; inactive. With COQ8A (coenzyme Q8A), rucaparib or vehicle Rucaparib, cell line OCI-C5x (clear cell), technical replicate 2, the values are viability, normalised (%) = 61.1; active. For COQ8A (coenzyme Q8A), rucaparib or vehicle Rucaparib, cell line OCI-C5x (clear cell), technical replicate 3, the entry reads viability, normalised (%) = 73.6; active. COQ8A (coenzyme Q8A), rucaparib or vehicle Rucaparib, cell line OCI-P5x (serous), technical replicate 1 gave viability, normalised (%) = 119; inactive. COQ8A (coenzyme Q8A), rucaparib or vehicle Rucaparib, cell line OCI-P5x (serous), technical replicate 2 scored viability, normalised (%) = 89.8; inactive. COQ8A (coenzyme Q8A), rucaparib or vehicle Rucaparib, cell line OCI-P5x (serous), technical replicate 3 scored viability, normalised (%) = 126; inactive.

COQ8A (coenzyme Q8A), rucaparib or vehicle Vehicle, cell line OCI-C5x (clear cell), technical replicate 1 scored viability, normalised (%) = 57.7; active. For COQ8A (coenzyme Q8A), rucaparib or vehicle Vehicle, cell line OCI-C5x (clear cell), technical replicate 2, the entry reads viability, normalised (%) = 65.9; active. With COQ8A (coenzyme Q8A), rucaparib or vehicle Vehicle, cell line OCI-C5x (clear cell), technical replicate 3 the deposit lists viability, normalised (%) = 52.9; active. COQ8A (coenzyme Q8A), rucaparib or vehicle Vehicle, cell line OCI-P5x (serous), technical replicate 1 showed viability, normalised (%) = 88.6; inactive. With COQ8A (coenzyme Q8A), rucaparib or vehicle Vehicle, cell line OCI-P5x (serous), technical replicate 2 the deposit lists viability, normalised (%) = 104; inactive. For COQ8A (coenzyme Q8A), rucaparib or vehicle Vehicle, cell line OCI-P5x (serous), technical replicate 3, the entry reads viability, normalised (%) = 71.8; active.
